Results: US20070264340A1, “Aromachemicals” (Flexitral, Inc., priority 2006, published 2007)

Assay: odour profile

Row | SMILES | odour
1 | CC(C)=CCCC1(C)CC1CO (racemic) [racemic mixture of the cis compounds, [2-methyl-2-(4-methylpent-3-en-1-yl)cyclopropyl]methanol] | intense sweet rosy odour
2 | CC(C)=CCCC1(C)CC1CO (racemic) [racemic mixture of the trans compounds, [2-methyl-2-(4-methylpent-3-en-1-yl)cyclopropyl]methanol] | citrus odour with some rosy notes
